# Among all 400,000 compounds or so, about 13,000 (3.2%) were called active. The shares of active, inactive and inconclusive entries below differ from those in the screen. Calls follow the shape of the dose curve; as a rule, active = well fitted cell-killing curve with a large enough effect; inconclusive = small, poorly fitted or top-dose-only effect, or effect the other way; inactive = flat fitted curve, though single readings scatter. A potency beside an inconclusive call is a rough fit, not a confirmed value.
# Experiment: qHTS assay for MDR1-selective chemotherapeutics: Primary screen using the drug-selected MDR subline cells KB-V1; also: nearly all actives have a fitted effect of over 60% in size
# Settings: KB-V1 MDR cells viability, CellTiter-Glo, 72 h; activity change, negative = cytotoxicity: at 46.1 µM (top of the series)
# How it was run: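 qHTS viability screen in drug-selected KB-V1 MDR cells: 72 h compound treatment at 37 degrees C, ATP luminescence end point.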
# % is scaled to controls: 0 for no effect and ±100 for the full control effect; potency is read from the fitted curve at half-maximal effect.
SMILES,"activity change, negative = cytotoxicity",Potency
COc1ccc(-c2c(C#N)c(N)nc(Sc3ccc(Cl)cc3)c2C#N)cc1,inactive: 3.28%,
Cc1cc(Cl)ccc1NS(=O)(=O)c1ccc2c(c1)CCN2S(C)(=O)=O,inactive: -32.2%,
COc1ccc(Nc2nc(N)c([N+](=O)[O-])c(NC3CCCCC3)n2)cc1,,"inconclusive: 32.6 µM [cytotoxic, single point]"
COc1ccc(OC)c(NC(=O)c2cc3c(=O)n4ccccc4nc3n2C)c1,inactive: 13.7%,
C[C@@H]1CN([C@H](C)CO)C(=O)CCCn2nncc2CO[C@@H]1CN(C)S(=O)(=O)c1cn(C)cn1,inactive: 6.57%,
Cc1ccc(/C=C2\Oc3cc(OCC(=O)NN)ccc3C2=O)o1,,"inconclusive: 29.1 µM [rising, single point]"
COc1ccc(CCSc2n[nH]c(C(C)C)n2)cc1,,"inconclusive: 11.6 µM [rising, partial curve]"
Cc1nnc(NC(=O)C2c3ccccc3Oc3ccccc32)s1,inactive: 0%,
O=C1C=C(c2ccccc2)C(c2ccccc2)C1O (stereo unspecified),,"inconclusive: 20.6 µM [cytotoxic, single point]"
Oc1ccc(CN2CCN(Cc3ccccc3)CC2)c2cccnc12,inactive: -10.7%,
CC(C)CCn1c(N2CCc3ccccc3C2)nc2c1c(=O)[nH]c(=O)n2C,,"inconclusive: 7.31 µM [cytotoxic, partial curve]"
Cc1ccc(C2=C(O)c3ccccc3C(=O)C2=O)cc1,inactive: 2.39%,
CCc1c(C#N)c(SCCC(=O)Nc2ccc(F)cc2)nc2c1C(=O)CC(C)(C)C2,,"inconclusive: 25.9 µM [cytotoxic, single point]"
Cc1ccc(/C=N/NC(=O)c2nnn(-c3nonc3N)c2-c2ccccc2)o1,,"inconclusive: 29.1 µM [rising, single point]"
CC(=O)Nc1nonc1-c1nnc(SCc2ccc(F)cc2Cl)n1C,inactive: -11.9%,
COc1cc2ncnc(NCc3cc(F)ccc3F)c2cc1OC,inactive: -36.1%,
Cn1cc(SCC(=O)NCCc2ccccc2)c2ccccc21,inactive: 4.47%,
Cn1c(SCC(=O)NC(=O)CN2CCCC2=O)nnc1-c1ccc(F)cc1,,"inconclusive: 13 µM [rising, partial curve]"
Cc1onc(-c2ccccc2)c1C(=O)OCC(=O)Nc1ccc2c(c1)OCO2,,"inconclusive: 20.6 µM [cytotoxic, partial curve]"
CCOC(=O)c1cnc2ccccc2c1NCc1ccco1,,"inconclusive: 18.4 µM [cytotoxic, partial curve]"
COc1cccc(C2C(C(=O)Nc3ccc(Cl)cc3)=C(C)Nc3c(C(=O)Nc4ccccc4)cnn32)c1OC (stereo unspecified),inactive: -21.6%,
O=C(CSc1nc2ccc(NC(=O)C3CCCCC3)cc2s1)NCC1CCCO1 (stereo unspecified),,"inconclusive: 8.2 µM [cytotoxic, partial curve]"
COc1ccc([N+](=O)[O-])cc1N(CC(=O)NCCC1=CCCCC1)S(C)(=O)=O,inactive: 0%,

SMILES,"activity change, negative = cytotoxicity",Potency
Cc1ccc(S(=O)(=O)N2CCN(c3ccc([N+](=O)[O-])c4cccnc34)CC2)cc1,,"inconclusive: 10.3 µM [cytotoxic, partial curve]"
Cc1cc(C)cc(NC(=O)CSc2nnc(COc3ccccc3Cl)o2)c1,,"inconclusive: 32.6 µM [cytotoxic, single point]"
CCOC(=O)c1c(-c2ccc(F)cc2)csc1NC(=O)CCN1CCOCC1,,active: 14.6 µM
COc1ccc2c(CCNC(=O)/C=C/c3ccc(OC)c(OC)c3)c[nH]c2c1,,"inconclusive: 29.1 µM [cytotoxic, single point]"
Cc1cccc(N(C(=O)c2csnn2)C(C(=O)NCc2ccccc2)c2ccc(C)o2)c1 (stereo unspecified),,"inconclusive: 23.1 µM [cytotoxic, single point]"
NC(=O)c1c(NC(=O)c2ccncc2)sc2c1CCCC2,,"inconclusive: 29.1 µM [cytotoxic, single point]"
CO/N=C(\Cn1ncc(N2CCCC2)c(Br)c1=O)c1ccc(Cl)cc1,,"inconclusive: 11.6 µM [cytotoxic, partial curve, poor fit]"
CN(C)C(=O)c1ccc(NC(=O)CSc2nnc(-c3cccs3)n2N)cc1,,"inconclusive: 20.6 µM [rising, single point]"
O=C(NC1CC1)c1nc2c(nnn2Cc2ccccc2Cl)c(=O)[nH]1,inactive: -5.78%,
Cc1ccc(-n2cnc3c(sc4nccc(N(C)C)c43)c2=O)cc1,,"inconclusive: 14.6 µM [cytotoxic, partial curve]"
CC(c1ccccc1)N1CC(C(=O)Nc2ccc(F)cc2)CC1=O (stereo unspecified),inactive: -26.9%,
CCn1c(SCC(=O)N2c3ccccc3CCc3ccccc32)nc2c1c(=O)n(C)c(=O)n2C,,active: 2.06 µM
O=C1c2ccccc2C(c2nnnn2-c2ccc3c(c2)OCCO3)N1CCc1c[nH]c2ccccc12 (stereo unspecified),,"inconclusive: 9.2 µM [cytotoxic, partial curve]"
O=C(Nc1c(F)cc(F)cc1Br)c1cc(S(=O)(=O)N2CCN(c3ccccn3)CC2)ccc1F,inactive: -2.91%,
Cc1nn(-c2ccccc2)c(-n2cccc2)c1C(=O)NCc1ccccc1Cl,,"inconclusive: 29.1 µM [cytotoxic, single point]"
COc1ccc(S(=O)(=O)Nc2ccc3c(c2)N(C(C)=O)CCC3)cc1OC,,"inconclusive: 20.6 µM [cytotoxic, partial curve, poor fit]"
CC1CCN(S(=O)(=O)c2ccc3ncn(CC(=O)Nc4ccccc4C(F)(F)F)c(=O)c3c2)CC1,inactive: 14%,
CC(=O)c1ccc(OCCCC(=O)Nc2ccc(C)c(S(=O)(=O)N3CCOCC3)c2)cc1,inconclusive: -48% [cytotoxic],
Brc1ccccc1CN1CCC(N2CCCCC2)CC1,,"inconclusive: 9.2 µM [cytotoxic, partial curve]"
Cc1cc(/C=N\NC(=O)CC(=O)NC2CCCCC2)c(C)n1-c1ccc(Cl)c(Cl)c1,,"inconclusive: 16.4 µM [cytotoxic, single point]"
COC(=O)CC1Oc2ccccc2N(Cc2ccc(C)cc2)C1=O (stereo unspecified),inactive: -10.1%,
O=C(c1cccc(S(=O)(=O)N2CCCCCC2)c1)N1CCN(c2ccccc2F)CC1,,"inconclusive: 7.31 µM [cytotoxic, partial curve]"
Cc1nn(C2CCS(=O)(=O)C2)c(Cl)c1/C=C/C(=O)OCC(=O)Nc1ccc2c(c1)OCO2 (stereo unspecified),,"inconclusive: 18.4 µM [rising, partial curve, poor fit]"

# Random excerpt: 2 entries already listed
SMILES,"activity change, negative = cytotoxicity",Potency
Cc1nn(C2CCS(=O)(=O)C2)c(Cl)c1/C=C/C(=O)OCC(=O)Nc1ccc2c(c1)OCO2 (stereo unspecified),,"inconclusive: 18.4 µM [rising, partial curve, poor fit]"
COc1ccc(Nc2nc(N)c([N+](=O)[O-])c(NC3CCCCC3)n2)cc1,,"inconclusive: 32.6 µM [cytotoxic, single point]"

# — PubChem BioAssay AID1347076 (National Center for Advancing Translational Sciences (NCATS), 2019)
